This note sets out measurements from PMC10567755.

Sequences of proteins named here, by UniProt entry; tags and fusion partners are left off.
UniProt P07910: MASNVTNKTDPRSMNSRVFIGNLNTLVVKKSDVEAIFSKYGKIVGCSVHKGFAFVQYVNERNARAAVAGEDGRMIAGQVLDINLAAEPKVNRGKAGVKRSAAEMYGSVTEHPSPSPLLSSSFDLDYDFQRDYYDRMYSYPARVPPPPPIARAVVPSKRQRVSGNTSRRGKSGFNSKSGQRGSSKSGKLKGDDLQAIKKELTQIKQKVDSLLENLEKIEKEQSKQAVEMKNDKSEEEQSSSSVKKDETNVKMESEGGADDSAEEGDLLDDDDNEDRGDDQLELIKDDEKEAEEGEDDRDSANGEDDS

No constants are given. Whether binding was seen depends on the method and setting. Binding seen in cells or lysates may run through a third protein. Some entries that bind do so weakly or less than the wild type. For some of these results: Where a sequence is shown, tags or fusion partners need not be part of it.

In assay [1] the target is HNRNPC, endogenous (human (endogenous in 293T or PLC-8024)) (UniProt P07910). Description: co-IP; endogenous proteins; 293T and PLC-8024 cells named for the figure; detected by WB.
For assay [2], the target named is HNRNPC of the GST-pulldown assay (UniProt P07910). As to the kind of experiment: pull-down; GST-pulldown assay to test whether the interaction is direct (Fig. S11).
Assay [3] concerns the target HA-HNRNPC, ectopically overexpressed in 293T and PLC-8024 cells (human) (UniProt P07910). Description: co-IP; ectopically overexpressed proteins in 293T and PLC-8024 cells (co-transfected plasmids); anti-Flag or anti-HA agarose, WB with anti-Flag and anti-HA.
Assay [4] addresses HA-HNRNPC, ectopically overexpressed in Hepa1-6 and 3T3 cells (UniProt P07910). Description: co-IP; ectopically overexpressed tagged proteins in mouse cell lines Hepa1-6 and 3T3.

B1: Ubiquitin-specific protease 39 (USP39), endogenous (protein, UniProt Q53GS9 1-565)
chain: MSGRSKRESRGSTRGKRESESRGSSGRVKRERDREREPEAASSRGSPVRVKREFEPASAREAPASVVPFVRVKREREVDEDSEPEREVRAKNGRVDSEDRRSRHCPYLDTINRSVLDFDFEKLCSISLSHINAYACLVCGKYFQGRGLKSHAYIHSVQFSHHVFLNLHTLKFYCLPDNYEIIDSSLEDITYVLKPTFTKQQIANLDKQAKLSRAYDGTTYLPGIVGLNNIKANDYANAVLQALSNVPPLRNYFLEEDNYKNIKRPPGDIMFLLVQRFGELMRKLWNPRNFKAHVSPHEMLQAVVLCSKKTFQITKQGDGVDFLSWFLNALHSALGGTKKKKKTIVTDVFQGSMRIFTKKLPHPDLPAEEKEQLLHNDEYQETMVESTFMYLTLDLPTAPLYKDEKEQLIIPQVPLFNILAKFNGITEKEYKTYKENFLKRFQLTKLPPYLIFCIKRFTKNNFFVEKNPTIVNFPITNVDLREYLSEEVQAVHKNTTYDLIANIVHDGKPSEGSYRIHVLHHGTGKWYELQDLQVTDILPQMITLSEAYIQIWKRRDNDETNQQGA
On to B1, for which, in assay [1], the binding entry is “binds”.

B2: USP39 of the GST-pulldown assay (protein, UniProt Q53GS9 1-565)
chain: MSGRSKRESRGSTRGKRESESRGSSGRVKRERDREREPEAASSRGSPVRVKREFEPASAREAPASVVPFVRVKREREVDEDSEPEREVRAKNGRVDSEDRRSRHCPYLDTINRSVLDFDFEKLCSISLSHINAYACLVCGKYFQGRGLKSHAYIHSVQFSHHVFLNLHTLKFYCLPDNYEIIDSSLEDITYVLKPTFTKQQIANLDKQAKLSRAYDGTTYLPGIVGLNNIKANDYANAVLQALSNVPPLRNYFLEEDNYKNIKRPPGDIMFLLVQRFGELMRKLWNPRNFKAHVSPHEMLQAVVLCSKKTFQITKQGDGVDFLSWFLNALHSALGGTKKKKKTIVTDVFQGSMRIFTKKLPHPDLPAEEKEQLLHNDEYQETMVESTFMYLTLDLPTAPLYKDEKEQLIIPQVPLFNILAKFNGITEKEYKTYKENFLKRFQLTKLPPYLIFCIKRFTKNNFFVEKNPTIVNFPITNVDLREYLSEEVQAVHKNTTYDLIANIVHDGKPSEGSYRIHVLHHGTGKWYELQDLQVTDILPQMITLSEAYIQIWKRRDNDETNQQGA
Consider B2, for which the binding entry in assay [2] is “binds”.

B3: Flag-USP39, ectopically overexpressed in 293T and PLC-8024 cells (protein, UniProt Q53GS9 1-565)
chain: MSGRSKRESRGSTRGKRESESRGSSGRVKRERDREREPEAASSRGSPVRVKREFEPASAREAPASVVPFVRVKREREVDEDSEPEREVRAKNGRVDSEDRRSRHCPYLDTINRSVLDFDFEKLCSISLSHINAYACLVCGKYFQGRGLKSHAYIHSVQFSHHVFLNLHTLKFYCLPDNYEIIDSSLEDITYVLKPTFTKQQIANLDKQAKLSRAYDGTTYLPGIVGLNNIKANDYANAVLQALSNVPPLRNYFLEEDNYKNIKRPPGDIMFLLVQRFGELMRKLWNPRNFKAHVSPHEMLQAVVLCSKKTFQITKQGDGVDFLSWFLNALHSALGGTKKKKKTIVTDVFQGSMRIFTKKLPHPDLPAEEKEQLLHNDEYQETMVESTFMYLTLDLPTAPLYKDEKEQLIIPQVPLFNILAKFNGITEKEYKTYKENFLKRFQLTKLPPYLIFCIKRFTKNNFFVEKNPTIVNFPITNVDLREYLSEEVQAVHKNTTYDLIANIVHDGKPSEGSYRIHVLHHGTGKWYELQDLQVTDILPQMITLSEAYIQIWKRRDNDETNQQGA
Turning to B3, the binding entry in assay [3] is “binds”.

B4: Flag-USP39, ectopically overexpressed in Hepa1-6 and 3T3 cells (protein, UniProt Q53GS9 1-565)
chain: MSGRSKRESRGSTRGKRESESRGSSGRVKRERDREREPEAASSRGSPVRVKREFEPASAREAPASVVPFVRVKREREVDEDSEPEREVRAKNGRVDSEDRRSRHCPYLDTINRSVLDFDFEKLCSISLSHINAYACLVCGKYFQGRGLKSHAYIHSVQFSHHVFLNLHTLKFYCLPDNYEIIDSSLEDITYVLKPTFTKQQIANLDKQAKLSRAYDGTTYLPGIVGLNNIKANDYANAVLQALSNVPPLRNYFLEEDNYKNIKRPPGDIMFLLVQRFGELMRKLWNPRNFKAHVSPHEMLQAVVLCSKKTFQITKQGDGVDFLSWFLNALHSALGGTKKKKKTIVTDVFQGSMRIFTKKLPHPDLPAEEKEQLLHNDEYQETMVESTFMYLTLDLPTAPLYKDEKEQLIIPQVPLFNILAKFNGITEKEYKTYKENFLKRFQLTKLPPYLIFCIKRFTKNNFFVEKNPTIVNFPITNVDLREYLSEEVQAVHKNTTYDLIANIVHDGKPSEGSYRIHVLHHGTGKWYELQDLQVTDILPQMITLSEAYIQIWKRRDNDETNQQGA
As for B4, in assay [4], the binding result is recorded as “binds”.
